In all, about 52,000 sequences went through this assay and about 210 (0.4%) were called active.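 How the source made its calls: active means gene whose silencing raises cell survival under the drug, median off-target-corrected z-score across its silencing RNAs 2 or more; inactive means the rest.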 This is one part of the list.

The nature of this assay: Resistance to Poly (ADP-Ribose) Polymerase inhibitor: Gene Identification via Genome-wide siRNA Screen. The note with it: mouse BRCA2 R2336H ES cells, olaparib, CellTiter-Glo viability; active compounds read high. In short, it runs like this:
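Mouse BRCA2 R2336H ES cells were reverse-transfected with siRNA (20 nM final), treated at 48 h with 500 nM olaparib, and read by CellTiter-Glo after 72 h. Scores: MAD-based z per siRNA, median per gene, seed off-target correction.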
In general terms: Cellular ATP, detected with luciferase, serves as a proxy for viable cell number.
As to GGGAAUAAUGUCUAGUUUGTT against Drctnnb1a, the z-score is inactive: 0.175.

On to GGACGACAAGGACUUCACGTT against Kcna1, for which the z-score was inactive: 0.264. Take GGUAUUUGUUAGGCCACAGTT against Svp2: the z-score is inactive: 0.184. In the case of GGGCUUAUGGAGUUGUAAATT against Avpi1, the z-score was inactive: 0.66. Consider “GGAGAAGCUCUUAAAGAAATT against 6030423D04Rik”, for which the z-score was inactive: -1.1. Regarding GGAUGAGAACUACAUGAUCTT against Card10, the z-score was inactive: 0.324. For GGAAAAUUUGCUGUGGUUATT against Stk17b, the z-score was inactive: 1.25. As to GCUUAGGAGAAAGAGCAAUTT against Gpr139, the z-score is inactive: 1.74. For the sequence GCUUAACCUCAGAGAUGAUTT against Mbip, the z-score is inactive: -1.9. For the sequence “GGACUGCAUCUUUAAAGAATT against A230062G08Rik”, the z-score is inactive: -0.75.

For the sequence “CCAUUAUGAGUAUAGUUGCTT against 1810045K17Rik”, the z-score was inactive: 0.0923. For “GCAGUUAAUACUUACCGCGTT against A430057M04Rik”, the z-score was inactive: 0.356. Regarding GGAAACCAGGUCUCAGAGUTT against Pde4a, the z-score was inactive: 1.88. As for GGCCCUCCCAAAUCAUUUGTT against Slc30a6, the figure is inactive: 0.405; as for CCAUAAGUAGGAUUCUAUCTT against Mrg1, inactive: -0.585. “CGCUUUACCUUCCCGUUUATT against A630026F04”: the z-score is inactive: -1.33. As to GCAGGAUAUGUAAAGGUUUTT against Ian4, the z-score was inactive: -0.928. Take “GGACCUAUUUCUCUGCUCCTT against E330026B02Rik”: the z-score was inactive: -0.251.

GCCAGUCUAUGCAAACCCUTT against Foxo3: the z-score was inactive: -0.121. For GGUUUUUCAGAAAUUAGUGTT against Olfr1163, the z-score is inactive: -1.14. In the case of GCGAAGGAAUUUAAGGACCTT against Tmod1, the z-score is inactive: 0.198. GCUAGUCCUCAAGCUUCUGTT against Snapc2: the z-score was inactive: -0.928. Turning to CUUUUGUAAAGCCUUCCACTT against BC038328, the z-score is inactive: 0.675.

On to “GCACUGUACAGCCGUUUAUTT against 4933401I19Rik”, for which the z-score is inactive: -1.1. As for GCAGAAGUACGAUGGAAUCTT against Rpl11, the figure is inactive: -2.03; as for CCGCCUAAAUGACUUGACATT against Fbxo12, inactive: -0.664; as for “GCUGUCAGUCAAUACAAAATT against 4930535E21Rik”, inactive: -0.186.

Take GGUCAAAGAUGCAUUGAAGTT against Glmn: the z-score is inactive: -1.37. Turning to “GGCUGAUUCUCAUCACAUUTT against E130309D02Rik”, the z-score was inactive: -0.452.

As for GCAUGAAUAGCAAGCGAAGTT against AW545966, the z-score was inactive: 0.914.

With “GCUUUUCCGACAGGACCUGTT against 4932417H02Rik”, the z-score is inactive: -1.62.

For the sequence GGAUUUUGCACAAACAGAATT against Col11a1, the z-score was inactive: -0.456. On to GGUGUUCAACUCCACUAUGTT against Nhlrc1, for which the z-score is inactive: -0.873. As for GCUCGAUGUGAACUGCUAGTT against Ankrd9, the figure is inactive: -1.84. The figure for GGGUCUUGUUAAUCUGUAUTT against Pparbp is inactive: 0.119; for GGGUUUUGAGAUGUAAUGATT against Mir it is inactive: -0.423. For the sequence CCUUGUACAACACUGGCCGTT against Car11, the z-score is inactive: -0.144. With “CGGUGAACUAUGGUCCUGATT against 9130012D09Rik”, the z-score was inactive: 0.368. Take GGAGCCUAUCGCUUUACUCTT against Vps16: the z-score is inactive: -1.01. Regarding GGCAGUAUGCUCCCAGAAUTT against Fndc4, the z-score is inactive: -2.54. Take CGUAUUCCAUGAAUUCUGUTT against Rnf121: the z-score was inactive: 0.718. On to GCUCUAAGGACCAUAUACCTT against Ppm1d, for which the z-score was inactive: 0.522. In the case of “GGCGGUAAAUCAAGUGGAATT against 1810013B01Rik”, the z-score was inactive: 0.686. “GCAUAGAAUACAAAGAUGATT against 9630058J23Rik”: the z-score was inactive: 0.179. The figure for “GGGAAUUCUGAAAUCAUUCTT against B930062P21Rik” is inactive: 0.249; for GGUUUUAUCAGAAUGUCAGTT against Atpaf2 it is inactive: -0.67; for CCCUGUCAUGUCAGUGUGATT against Cml1 it is inactive: -1.96. For the sequence GGAAACAACUUUCUAUAACTT against V1ri6, the z-score is inactive: -0.157. With GGCAUCACAGAAGGUUUAUTT against Rock2, the z-score was inactive: -0.819. On to GGACUUUCGUGAUUGUAGATT against Prkdc, for which the z-score is inactive: -0.105. In the case of “CCUUUUACUAGACACAGUCTT against 9030603L14Rik”, the z-score is inactive: -0.455. For the sequence CGAGCUAUACGGAAAAAAATT against BC060267, the z-score was inactive: 0.103. As for GGCAAGUUAAGGUAUAUGGTT against Eftud1, the figure is inactive: -1.13. “GGAGCUUCUCAUGACCUUUTT against 4832428D23Rik”: the z-score was inactive: -0.505. The figure for GGGAACUGAAUUUUUCAGUTT against Ank3 is inactive: 0.432; for GCGAUUUGUGGUUCUCAUATT against Rnf103 it is inactive: 0.512.

As to GGCUGAAGGAGCAAUCAAATT against L3mbtl3, the z-score is inactive: 1.46. As for CCUAAAAGCAGGCCAAAAUTT against Dhx29, the figure is inactive: -0.35; as for GGAGCUAGAUAGGAAAAAATT against Vill, inactive: -0.564; as for GGAUAAACAUCAUCUAUGGTT against Olfr604, inactive: -0.153.

Take GGCUAUAGGGAUGAUCAUATT against Cysltr1: the z-score is inactive: -1.09. Regarding GCAGCUAAGCACUGGAAAATT against Coq4, the z-score is inactive: -0.986. As for “GCUGACUUUUAGUCAAGGATT against D630005B22Rik”, the figure is inactive: 1.01; as for GGAAGUCCUGGACAUUCAGTT against Nfkbie, inactive: -2.49; as for “GGGUCAAUUAUUUAUGGUUTT against D830046C22Rik”, inactive: 0.328. On to GGUGUCUGCCUUACCAUAUTT against Dyrk1a, for which the z-score was inactive: 0.416. With GCAAGAUCCAGAACACUCATT against Adora1, the z-score is inactive: -0.691. The figure for CCAGAUGCAGUCACAAGUCTT against Klf4 is inactive: 0.422; for GGAAUAGUAACUCUUUCUCTT against LOC114601 it is inactive: 0.204. As to GGACAUUUUUGACCACAUATT against Nat1, the z-score is inactive: -1.44.

Turning to GGCAGCACAAGAAAAAGAATT against Arid5a, the z-score is inactive: -1.59.

With “GGAUAAAUGGUUCUAGAAATT against 3110006P09Rik”, the z-score was active: -0.433. For GAAAGAGAGUAAAGAGCCGTT against Ly6i, the z-score is inactive: 0.732. Take “GGUAAAGUGACCGAACACUTT against 9630033F20Rik”: the z-score was inactive: -1.9. Regarding GGACAGAGCUACACAAACUTT against V1rg9, the z-score is inactive: -0.158.

For “GGUGUACCAAGUGUUUUCATT against 2210404D11Rik”, the z-score is inactive: -0.88.

GGAGACAGCUAAGAAACUGTT against Hsd11b2: the z-score is inactive: -0.559. For GGAGAAGAGAAAAAAGGAUTT against Pla1a, the z-score was inactive: -0.388. For the sequence GGUUCUGGCUCUUCUCUGUTT against Mogat2, the z-score is inactive: -1.48. Consider GGAGCAAAAGAAGAAGAACTT against Mtdh, for which the z-score is inactive: -0.0748. For “GCUCAUGUUGCUGUUAAUATT against 6230416J20Rik”, the z-score was inactive: -1.04.

Consider GGAUCUGAUGCGUCAGAGATT against Tnrc15, for which the z-score was inactive: -0.861. Take CCAUACAUCCGAGAGUUUGTT against Snrp70: the z-score was inactive: -2.85. As for GGAACACAUCAACAUUCACTT against Cttn, the figure is inactive: -0.156. Take GGCCAAGAUCAUCUUUGUGTT against Ak1: the z-score was inactive: -1.33. Turning to GGAGCUGCUAUAGAAGUACTT against Ankrd23, the z-score is inactive: -1.53.

Consider GGAAGUGAAGAUGAUGAAUTT against Cpsf3, for which the z-score was inactive: 0.369. As to “GGGAAAUGCUGAUUCUCGATT against 9230117E20Rik”, the z-score was inactive: 0.891. Turning to CCAAUCAAUUCUCAGCGACTT against Sufu, the z-score is inactive: -0.473. Consider CCGAUUGAAUGAACAACGGTT against Zfp131, for which the z-score is inactive: -1.63. Consider “CCAAAUUGGGUCUAUAAGGTT against 4930517K11Rik”, for which the z-score was inactive: 0.301. Take GGUCUUUGUAUGUCUGUUUTT against Rad51l3: the z-score is inactive: -0.375. As for GGACUCUGUAGUUGAAGAUTT against Pogz, the z-score was inactive: -0.377. As for GUAUGCUGGCAGCUCAUUGTT against Klra6, the figure is inactive: 2.14; as for CCGAAGUGCAACAAGCCAATT against Abl2, inactive: -0.134.

On to GGAAAACACAACAUGAUACTT against Doc2b, for which the z-score was inactive: -0.334. For the sequence CGUAUGAAGCUUAAUAGCATT against Polq, the z-score was inactive: -0.632. For the sequence GGUGUGCAUUGGAAUUAUGTT against Mogat1, the z-score is inactive: 0.198. Regarding “CCUUGUCCUAUGUUAGGCATT against E030025D05Rik”, the z-score is inactive: -0.598. Regarding CCUGUACAUUGUGUAAUGUTT against Pcdh8, the z-score was inactive: 1.17. In the case of GGAGAUUUCCAAGAUUCUGTT against Abcc4, the z-score is inactive: 0.188.

CCCAAGGUGAUGGUGUCCUTT against Hspa1l: the z-score is inactive: 0.318. For the sequence GAUGAAGCUGCUUUACCACTT against Hes5, the z-score is inactive: -0.507.

Source of the values: PubChem BioAssay AID1347423 (Functional Genomics Laboratory (NCATS/FGL), 2020).
